# Data: patent publication US20060100199A1, “Novel condensed imidazole derivatives” (priority 2003, published 2006)
# Some of these results come from one statement about several compounds together.
# System: male Zucker fa/fa rats
# Assay: Effect on the glucose tolerance of male Zucker fa/fa rat (in vivo test)
# Conditions: oral dose of 0.1-10 (mg/kg), glucose 2 g/kg after 0.5 hr; 0.5% MC solution-treated group = 100%
Structure (SMILES),rate of change in GLP-1 level (AUCGLP-1(0-2 h)),rate of change in glucose tolerance (AUCGlu(0-3 h)),rate of change in insulin level (AUCins(0-2 h))
"CC#CCn1c(N2CCNCC2)nc2nc(C#N)n(C)c(=O)c21.O=C(O)C(F)(F)F [Example 82, 7-(2-Butynyl)-2-cyano-1-methyl-8-(piperazin-1-yl)-1,7-dihydropurin-6-one trifluoroacetate]",higher than 100%,lower than 100%,higher than 100%
"CC#CCn1c(N2CCNCC2)nc2nc(Oc3ccccc3C(N)=O)n(C)c(=O)c21 [Example 122, 2-[7-(2-Butynyl)-1-methyl-6-oxo-8-(piperazin-1-yl)-6,7-dihydro-1H-purin-2-yloxy]benzamide]",higher than 100%,lower than 100%,higher than 100%
"CC#CCn1c(N2CCNCC2)nc2nc(C#N)n(Cc3ccccc3C#N)c(=O)c21.Cl [Example 229, 7-(2-Butynyl)-1-(2-cyanobenzyl)-6-oxo-8-(piperazin-1-yl)-6,7-dihydro-1H-purine-2-carbonitrile hydrochloride]",higher than 100%,lower than 100%,higher than 100%
"CC#CCn1c(N2CCNCC2)nc2cnn(C)c(=O)c21 [Example 119, 3-(2-Butynyl)-5-methyl-2-(piperazin-1-yl)-3,5-dihydroimidazo[4,5-d]pyridazin-4-one]",higher than 100%,lower than 100%,higher than 100%
"CC#CCn1c(N2CCNCC2)nc2cnn(Cc3ccccc3C#N)c(=O)c21.O=C(O)C(F)(F)F [Example 267, 2-[3-(2-Butynyl)-4-oxo-2-(piperazin-1-yl)-3,4-dihydroimidazo[4,5-d]pyridazin-5-ylmethyl]benzonitrile trifluoroacetate]",higher than 100%,lower than 100%,higher than 100%
"CC#CCn1c(N2CCCC(N)C2)nc2cnn(C)c(=O)c21.O=C(O)C(F)(F)F (stereo not drawn) [Example 120, 2-(3-Aminopiperidin-1-yl)-3-(2-butynyl)-5-methyl-3,5-dihydroimidazo[4,5-d]pyridazin-4-one trifluoroacetate]",higher than 100%,lower than 100%,higher than 100%
